This note sets out measurements from publication PMC7428214.

This assay concerns the target T1, haspin (Drosophila melanogaster (endogenous in larval salivary glands)) (UniProt P83103).
T1 sequence: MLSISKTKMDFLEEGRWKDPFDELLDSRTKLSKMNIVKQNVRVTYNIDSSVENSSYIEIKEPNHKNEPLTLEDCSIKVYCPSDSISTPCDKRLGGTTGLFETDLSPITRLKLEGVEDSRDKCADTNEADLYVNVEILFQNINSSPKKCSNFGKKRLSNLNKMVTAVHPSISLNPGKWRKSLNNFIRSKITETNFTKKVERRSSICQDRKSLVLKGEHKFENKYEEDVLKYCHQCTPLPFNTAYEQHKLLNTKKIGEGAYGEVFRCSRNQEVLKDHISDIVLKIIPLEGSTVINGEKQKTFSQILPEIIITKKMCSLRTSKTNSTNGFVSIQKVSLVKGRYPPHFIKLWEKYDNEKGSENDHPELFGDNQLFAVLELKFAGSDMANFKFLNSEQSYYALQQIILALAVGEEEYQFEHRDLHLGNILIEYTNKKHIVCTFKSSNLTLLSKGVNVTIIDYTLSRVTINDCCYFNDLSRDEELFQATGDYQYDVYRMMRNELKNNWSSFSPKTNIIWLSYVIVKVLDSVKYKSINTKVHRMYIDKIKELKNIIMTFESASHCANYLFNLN
Kind of assay: co-IP; immunoprecipitation with anti-haspin antibodies from Drosophila larval salivary gland (nuclear) extracts; lysis in 0.5% NP40, 300mM NaCl, 50mM Tris pH8, 5mM EDTA, protease inhibitors; incubation at 4°C; Protein A/G Agarose; Western blot (anti-Flag or anti-myc). For orientation: Immunoblotting shows a protein as a band on a membrane.

These are yes or no findings as the source states them, for the method shown. Binding seen in cells or lysates may run through a third protein. Binding can be weak; no strength is given.

As for Rad21-myc (Drosophila melanogaster), the binding result is “binds”.

For the substance Pds5-HA-Flag (Drosophila melanogaster), the binding entry is recorded as “binds”.
